The other results are listed elsewhere or left out.

Amino acid sequences for entries named in this document (tags omitted).
UniProt Q0JBA9, entry or part of it: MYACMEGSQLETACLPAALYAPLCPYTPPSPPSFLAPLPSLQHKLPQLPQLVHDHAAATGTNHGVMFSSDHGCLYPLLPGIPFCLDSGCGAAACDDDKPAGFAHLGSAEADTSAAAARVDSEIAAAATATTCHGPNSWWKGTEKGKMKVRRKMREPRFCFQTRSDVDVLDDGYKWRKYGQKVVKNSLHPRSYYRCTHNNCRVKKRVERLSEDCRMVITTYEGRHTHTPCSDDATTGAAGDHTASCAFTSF

This test deals with OsWRKY34 (Oryza sativa, UniProt Q0JBA9 1-250). The experiment in a line: protein-binding microarray (RPBM); PBS, 2% BSA, 51.3 ng/ul salmon testes DNA, 50 uM zinc acetate, 200 nM TF, 25 C, 1 h; high values mean tight binding. Conditions: protein: recombinant; tags: N-terminal polyhistidine and DsRed monomer fusion (pET32a); label: CyDye5-dUTP incorporated in the synthesized complementary strand; 3' TTTTT single-stranded linker to array surface; dsDNA, one strand shown. The procedure, abridged:
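Transcription factors, each fused N-terminally to a polyhistidine tag and DsRed, were expressed in E. coli BL21-CodonPlus and purified on Ni–NTA. A custom Agilent array was made double-stranded by primer extension with Cy5-dUTP and blocked with 2% BSA. It was incubated with 200 nM protein in PBS, 2% BSA, salmon testes DNA and 50 µM zinc acetate at 25 °C for 1 h, then washed. The binding signal is per-feature fluorescence intensity (arbitrary units) read on an Axon 4000B scanner.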
With “GGATAATTTTTGTTCGCTTCCGCGCTTCTCGCTAGTTTTTCGGAGTCACCTAGTGCAG”, the binding signal is 8580 fluorescence intensity (a.u.).

On to “CTGCTTCTAATAGTCCAGCATTAGCAAATGTCCGGCACTGCGGAGTCACCTAGTGCAG”, for which the binding signal is 8060 fluorescence intensity (a.u.).

For the sequence “GTGAGGGGAGGAAGCGGGGCTGCCTCGCGCGGCGGGAGGTCGGAGTCACCTAGTGCAG”, the binding signal is 8100 fluorescence intensity (a.u.).

For “CGATATCCGGCGTCTTGTCTTGGTGCATGTTAGCTTATATCGGAGTCACCTAGTGCAG”, the binding signal is 8830 fluorescence intensity (a.u.).

Regarding “AATTCCATCTTTGCAGTAGTCCTTGGCTTGATAATACAGACGGAGTCACCTAGTGCAG”, the binding signal was 9050 fluorescence intensity (a.u.).

On to “GGCTTCCTGTCCCGCGTCCGCGCCCACCACATCCGCAATTCGGAGTCACCTAGTGCAG”, for which the binding signal was 13300 fluorescence intensity (a.u.).

“TTTCTCGAGAAAATATCCACAGTCATCGTTGTCTCCTCCGCGGAGTCACCTAGTGCAG”: the binding signal was 8990 fluorescence intensity (a.u.).

As to “CTTCCCCGATGTGATGCCTACCGGATTCACACTTCCGTTACGGAGTCACCTAGTGCAG”, the binding signal was 8220 fluorescence intensity (a.u.).

As to “CTCCAAACACATCCTTAGCATCCAAGTGAATCTCTTTGGACGGAGTCACCTAGTGCAG”, the binding signal is 9510 fluorescence intensity (a.u.).

“GGCTGTTGTCAACCCATTTTCGAGTGATCCTGAAACAGATCGGAGTCACCTAGTGCAG”: the binding signal was 8300 fluorescence intensity (a.u.).

Take “AAAGCATATACTCTCTCTCTATATTTTTTTTATACAGGTCCGGAGTCACCTAGTGCAG”: the binding signal was 8820 fluorescence intensity (a.u.).

Turning to “AACTCACTCTCGCGTTCGCGTCGTCTCCGGCCTTTTCTTGCGGAGTCACCTAGTGCAG”, the binding signal was 8870 fluorescence intensity (a.u.).

As to “ATTTAATTTGCTCTTTGACCCTCATCGTCTTCACTGTACACGGAGTCACCTAGTGCAG”, the binding signal is 11300 fluorescence intensity (a.u.).

Regarding “TCTCTCTCTCGTGCGTCACCTCCTCGCGTGCTCAGCGCCGCGGAGTCACCTAGTGCAG”, the binding signal is 8780 fluorescence intensity (a.u.).

Consider “CTCCCTCCACACCGTCCGGCGAACTCCACGGCCACCTCCGCGGAGTCACCTAGTGCAG”, for which the binding signal was 9160 fluorescence intensity (a.u.).

For the sequence “GGGTTGGGATTTGACCAGGTTAAACCTCACGCAAACGGCACGGAGTCACCTAGTGCAG”, the binding signal is 9750 fluorescence intensity (a.u.).

Consider “GTACTAGTATTTTCACATATTGAATTTTTGTCACGCCTTTCGGAGTCACCTAGTGCAG”, for which the binding signal was 8540 fluorescence intensity (a.u.).

In the case of “AGAATTTCTTTTTTTTGGTCCACAATGCATTAGGGGCGGTCGGAGTCACCTAGTGCAG”, the binding signal is 8040 fluorescence intensity (a.u.).

For “TCGGGGAGGTCGGGGTCGCTGGTTGGATCCAAGAAACGGTCGGAGTCACCTAGTGCAG”, the binding signal is 16000 fluorescence intensity (a.u.).

For the sequence “GTCGGCGAAGGAGGGGCTGGGGTTCGCGGCGGCGGCGGAGCGGAGTCACCTAGTGCAG”, the binding signal is 8290 fluorescence intensity (a.u.).

Regarding “AGTCGCACATGTCCCACAAAACCACGTGAGTTTCCGTCAGCGGAGTCACCTAGTGCAG”, the binding signal was 8210 fluorescence intensity (a.u.).

As to “ACCGAGCCCAAACCGTTGCTTCTGTCGTATTCTAGCGCATCGGAGTCACCTAGTGCAG”, the binding signal is 11200 fluorescence intensity (a.u.).

With “CCTGATCACTATGTCTCTGTATCAACAATTTTCCGGGTTACGGAGTCACCTAGTGCAG”, the binding signal was 9110 fluorescence intensity (a.u.).

Take “GTCAGTCTCCTCCAAAGCATGCATCACATGTCATTTTTTACGGAGTCACCTAGTGCAG”: the binding signal is 9760 fluorescence intensity (a.u.).

For the sequence “AAACCCGCCCAGATCCTACTGAATTGCGTCATCCCACGATCGGAGTCACCTAGTGCAG”, the binding signal is 8150 fluorescence intensity (a.u.).

As to “CATATGTTTAACCGTTCGTCTTATTCAAAAACTTTTGTAACGGAGTCACCTAGTGCAG”, the binding signal was 8192 fluorescence intensity (a.u.).

Take “AGTTTACTCCAGCTTCTTAACTTCTTGATACTGACTCACACGGAGTCACCTAGTGCAG”: the binding signal is 8950 fluorescence intensity (a.u.).

With “CGTTTGCTAAAGTCTGCTCTGATTGTATTACGTCCTGGGGCGGAGTCACCTAGTGCAG”, the binding signal is 8540 fluorescence intensity (a.u.).

On to “CGTTGTTTGTTTCTTACTCTATCGTTCCAATTTAGTTTTTCGGAGTCACCTAGTGCAG”, for which the binding signal was 15500 fluorescence intensity (a.u.).

For the sequence “TTAAATTTCAGATCTTTTTGAGGTAGGGAGGGTTTTACAACGGAGTCACCTAGTGCAG”, the binding signal is 14900 fluorescence intensity (a.u.).

For the sequence “ACGCCCTATGTATATATCCTACTAGCATTAGTGAGTTCTCCGGAGTCACCTAGTGCAG”, the binding signal was 8750 fluorescence intensity (a.u.).

In the case of “CACTTTCCACGCGCGCGCTGCGAGGCCGAGGCCGAGGAGACGGAGTCACCTAGTGCAG”, the binding signal was 8340 fluorescence intensity (a.u.).

With “GAATTGCACCCGTTCGACAGGGACCTACTTTCGCGATTTTCGGAGTCACCTAGTGCAG”, the binding signal was 10300 fluorescence intensity (a.u.).

As to “GAGCGATATAGACCACGTTCCATCTCTCTAGTTTATATTTCGGAGTCACCTAGTGCAG”, the binding signal is 8400 fluorescence intensity (a.u.).

“GTCCCTAGTTAAGCAGTCATTGTGTCCCTTACCCACCTAACGGAGTCACCTAGTGCAG”: the binding signal is 8920 fluorescence intensity (a.u.).

On to “TGGCACGATGGATCCAACGCGCTGTTTCGTCGTTTCCGCGCGGAGTCACCTAGTGCAG”, for which the binding signal is 9060 fluorescence intensity (a.u.).

Regarding “CCTTTTTTTTCTATTAAGATACATATTTTACTCGTGGTTTCGGAGTCACCTAGTGCAG”, the binding signal was 10100 fluorescence intensity (a.u.).

For “CTCTCTCCATGGCCGCGCCCGCGCCGCCCACGCCGGCGGCCGGAGTCACCTAGTGCAG”, the binding signal was 8920 fluorescence intensity (a.u.).

Turning to “ATCCATCCATGTGTGTGTGTGCTGTGTTGTGTTAAGCTTTCGGAGTCACCTAGTGCAG”, the binding signal is 11000 fluorescence intensity (a.u.).

Regarding “TGGTTTATAACCTGCTATTGTACCTGCTCTTATTCTTAGTCGGAGTCACCTAGTGCAG”, the binding signal is 9680 fluorescence intensity (a.u.).

Take “TCCACCAAACCCCACTCCACACTTCCACAGTCCACACCCACGGAGTCACCTAGTGCAG”: the binding signal is 9060 fluorescence intensity (a.u.).

With “GACGAATGGTCAAACACGTACTAAAAAGTCAACGGTGTCACGGAGTCACCTAGTGCAG”, the binding signal is 12200 fluorescence intensity (a.u.).

The record behind these values is paper PMC7819943, “Rice protein-binding microarrays: a tool to detect cis-acting elements near promoter regions in rice”.
